Test results from US20220106271A1, “2-BROMO-6-ALKOXYPHENYL-SUBSTITUTED PYRROLIN-2-ONES AND THEIR USE AS HERBICIDES” (Bayer Aktiengesellschaft, priority 2018, published 2022).
Some results were stated once for a whole list of compounds, not compound by compound. Some compounds share one range, which may span the group rather than tell each member.

What was measured:
Assay in all cases: Post-emergence herbicidal effect, greenhouse pot test
Type in all cases: in vivo
[1] = system: Hordeum murinum; settings: 80 g/ha, post-emergence at one-leaf stage, assessed visually after about 3 weeks; 100% = plants have died, 0% = like control plants
Description: (§1) Seeds of monocotyledonous and dicotyledonous weed and crop plants are laid out in sandy loam soil in wood-fibre pots, covered with soil and cultivated in a greenhouse under good growth conditions. 2 to 3 weeks after sowing, the test plants are treated at the one-leaf stage. The compounds of the invention, formulated in the form of wettable powders (WP) or as emulsion concentrates (EC), are then sprayed onto the green parts of the plants as aqueous suspension or emulsion at a water application rate equating to 600 to 800 L/ha with addition of 0.2% wetting agent. After the test plants have been left to stand in the greenhouse under optimal growth conditions for about 3 weeks, the action of the preparations is assessed visually in comparison to untreated controls (herbicidal action in percent (%): 100% activity=the plants have died, 0% activity=like control plants).

[2] = system: Alopecurus myosuroides; settings: 80 g/ha, post-emergence at one-leaf stage, assessed visually after about 3 weeks; 100% = plants have died, 0% = like control plants
Description: as §1

[3] = system: Lolium rigidum; settings: application rate of 80 g/ha
Description: as §1

[4] = system: Setaria viridis; settings: 80 g/ha, post-emergence at one-leaf stage, assessed visually after about 3 weeks; 100% = plants have died, 0% = like control plants
Description: as §1

[5] = system: Echinochloa crus-galli; settings: 80 g/ha, post-emergence at one-leaf stage, assessed visually after about 3 weeks; 100% = plants have died, 0% = like control plants
Description: as §1

[6] = system: Avena fatua; settings: 80 g/ha, post-emergence at one-leaf stage, assessed visually after about 3 weeks; 100% = plants have died, 0% = like control plants
Description: as §1

CC#Cc1cc(Br)c(C2=C(O)C3(CCC(OC)CC3)NC2=O)c(OC)c1 (single isomer, unassigned) [Example 1.2]
90-100%: Post-emergence action HORMU (herbicidal action in percent) [1] | Post-emergence action ALOMY (herbicidal action in percent) [2] | Post-emergence activity against Lolium multiflorum (Table 3) [3] | Post-emergence action SETVI (herbicidal action in percent) [4] | Post-emergence action ECHCG (herbicidal action in percent) [5] | Post-emergence action AVEFA (herbicidal action in percent) [6]

CC#Cc1cc(Br)c(C2=C(OC(=O)OCC)C3(CCC(OC)CC3)NC2=O)c(OC)c1 (stereo not drawn) [Example 1.3, 3-[2-Bromo-6-methoxy-4-(prop-1-yn-1-yl)phenyl]-8-methoxy-2-oxo-1-azaspiro[4.5]dec-3-en-4-yl ethyl carbonate]
90-100%: Post-emergence action HORMU (herbicidal action in percent) [1] | Post-emergence action ALOMY (herbicidal action in percent) [2] | Post-emergence activity against Lolium multiflorum (Table 3) [3] | Post-emergence action SETVI (herbicidal action in percent) [4] | Post-emergence action ECHCG (herbicidal action in percent) [5] | Post-emergence action AVEFA (herbicidal action in percent) [6]
